The supplement of paper PMC12823440, “Inhibitors supercharge kinase turnover through native proteolytic circuits” (Nature, 2025)
The list shows a part of the results. The calls rarely recur for the same compound in another form.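 Kinases were expressed as nanoluciferase fusions in K562 cells and luminescence was read every 4 h between 2 and 18 h as percent of control, DMSO set to 100% and a positive control to 0%. A time point counts as decreased when the signal drops significantly (2 sigma). The hit call is the authors' own, does not follow from the count of time points alone, and its rule is not shown.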

Sequences of proteins named here, by UniProt entry; tags and fusion partners are left off. A change or cut given only in a name is not applied to a line headed by its entry.
UniProt P31152, whole entry: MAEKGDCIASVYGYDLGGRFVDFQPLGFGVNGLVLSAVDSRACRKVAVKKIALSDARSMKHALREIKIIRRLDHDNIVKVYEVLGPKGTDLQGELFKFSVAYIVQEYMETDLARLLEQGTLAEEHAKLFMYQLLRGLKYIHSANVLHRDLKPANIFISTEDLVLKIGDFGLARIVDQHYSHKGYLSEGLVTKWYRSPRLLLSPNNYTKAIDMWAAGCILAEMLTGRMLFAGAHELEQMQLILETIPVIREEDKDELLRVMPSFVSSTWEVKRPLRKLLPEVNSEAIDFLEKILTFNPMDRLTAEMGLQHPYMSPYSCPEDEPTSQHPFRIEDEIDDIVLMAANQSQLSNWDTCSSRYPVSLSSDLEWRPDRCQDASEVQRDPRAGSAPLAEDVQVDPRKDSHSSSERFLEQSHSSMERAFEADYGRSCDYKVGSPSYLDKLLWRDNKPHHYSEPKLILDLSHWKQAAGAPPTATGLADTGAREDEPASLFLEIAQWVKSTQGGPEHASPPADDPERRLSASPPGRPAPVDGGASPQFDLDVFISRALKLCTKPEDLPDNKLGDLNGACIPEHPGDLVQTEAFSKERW
UniProt P49137, whole entry, looked up: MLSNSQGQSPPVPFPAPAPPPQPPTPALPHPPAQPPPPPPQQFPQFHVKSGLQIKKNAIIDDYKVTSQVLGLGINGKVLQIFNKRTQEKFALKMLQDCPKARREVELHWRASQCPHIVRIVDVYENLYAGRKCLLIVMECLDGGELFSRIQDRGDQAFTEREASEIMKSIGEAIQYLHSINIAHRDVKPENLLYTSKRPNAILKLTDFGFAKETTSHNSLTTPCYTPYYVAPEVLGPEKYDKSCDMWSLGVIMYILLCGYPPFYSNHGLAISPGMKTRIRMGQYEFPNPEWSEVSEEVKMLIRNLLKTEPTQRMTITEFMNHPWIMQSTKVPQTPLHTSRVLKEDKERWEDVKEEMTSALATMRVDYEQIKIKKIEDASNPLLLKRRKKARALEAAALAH
UniProt O96013: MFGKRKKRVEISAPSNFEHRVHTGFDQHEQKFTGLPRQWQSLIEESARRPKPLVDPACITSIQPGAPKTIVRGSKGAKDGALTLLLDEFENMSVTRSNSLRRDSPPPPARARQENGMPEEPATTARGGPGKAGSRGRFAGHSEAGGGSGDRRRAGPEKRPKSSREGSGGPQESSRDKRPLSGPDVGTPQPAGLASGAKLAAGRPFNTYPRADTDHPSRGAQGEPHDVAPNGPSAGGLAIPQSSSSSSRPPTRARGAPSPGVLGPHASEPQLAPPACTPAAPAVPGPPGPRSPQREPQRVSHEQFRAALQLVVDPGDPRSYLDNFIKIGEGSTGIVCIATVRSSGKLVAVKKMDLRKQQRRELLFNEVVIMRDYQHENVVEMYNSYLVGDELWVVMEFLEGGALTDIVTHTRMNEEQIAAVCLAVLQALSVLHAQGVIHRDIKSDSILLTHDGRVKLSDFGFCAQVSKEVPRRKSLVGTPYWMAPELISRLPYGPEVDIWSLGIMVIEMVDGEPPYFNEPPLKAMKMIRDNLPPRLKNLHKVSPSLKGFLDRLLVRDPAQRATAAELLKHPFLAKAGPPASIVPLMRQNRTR
UniProt P09619, whole entry: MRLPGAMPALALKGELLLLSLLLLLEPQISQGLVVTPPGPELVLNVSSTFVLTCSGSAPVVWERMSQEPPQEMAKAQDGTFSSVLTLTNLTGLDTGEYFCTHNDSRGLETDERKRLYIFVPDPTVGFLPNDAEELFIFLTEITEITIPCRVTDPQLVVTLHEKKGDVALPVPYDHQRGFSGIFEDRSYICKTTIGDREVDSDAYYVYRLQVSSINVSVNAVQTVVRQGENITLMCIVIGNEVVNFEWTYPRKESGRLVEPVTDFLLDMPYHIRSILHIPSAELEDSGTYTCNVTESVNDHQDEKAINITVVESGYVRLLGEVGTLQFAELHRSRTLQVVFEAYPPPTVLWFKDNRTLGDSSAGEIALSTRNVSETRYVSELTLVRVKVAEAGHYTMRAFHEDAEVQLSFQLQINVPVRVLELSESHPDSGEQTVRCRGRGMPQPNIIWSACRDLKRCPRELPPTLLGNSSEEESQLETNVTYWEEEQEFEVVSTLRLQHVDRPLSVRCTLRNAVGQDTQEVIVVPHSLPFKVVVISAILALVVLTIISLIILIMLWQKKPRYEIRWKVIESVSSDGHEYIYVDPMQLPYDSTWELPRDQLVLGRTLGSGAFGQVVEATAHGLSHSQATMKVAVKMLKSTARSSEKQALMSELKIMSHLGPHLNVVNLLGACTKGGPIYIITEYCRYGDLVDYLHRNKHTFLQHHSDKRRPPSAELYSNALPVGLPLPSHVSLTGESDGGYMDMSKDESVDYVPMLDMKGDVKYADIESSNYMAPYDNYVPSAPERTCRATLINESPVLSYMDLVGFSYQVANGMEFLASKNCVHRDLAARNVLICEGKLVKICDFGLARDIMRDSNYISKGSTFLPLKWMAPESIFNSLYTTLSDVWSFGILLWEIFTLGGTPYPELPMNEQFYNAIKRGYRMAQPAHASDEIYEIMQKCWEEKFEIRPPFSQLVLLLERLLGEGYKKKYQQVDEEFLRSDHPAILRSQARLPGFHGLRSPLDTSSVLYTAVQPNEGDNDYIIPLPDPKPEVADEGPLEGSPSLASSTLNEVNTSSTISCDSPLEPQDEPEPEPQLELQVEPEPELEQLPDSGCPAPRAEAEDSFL
UniProt P42356, whole entry, looked up: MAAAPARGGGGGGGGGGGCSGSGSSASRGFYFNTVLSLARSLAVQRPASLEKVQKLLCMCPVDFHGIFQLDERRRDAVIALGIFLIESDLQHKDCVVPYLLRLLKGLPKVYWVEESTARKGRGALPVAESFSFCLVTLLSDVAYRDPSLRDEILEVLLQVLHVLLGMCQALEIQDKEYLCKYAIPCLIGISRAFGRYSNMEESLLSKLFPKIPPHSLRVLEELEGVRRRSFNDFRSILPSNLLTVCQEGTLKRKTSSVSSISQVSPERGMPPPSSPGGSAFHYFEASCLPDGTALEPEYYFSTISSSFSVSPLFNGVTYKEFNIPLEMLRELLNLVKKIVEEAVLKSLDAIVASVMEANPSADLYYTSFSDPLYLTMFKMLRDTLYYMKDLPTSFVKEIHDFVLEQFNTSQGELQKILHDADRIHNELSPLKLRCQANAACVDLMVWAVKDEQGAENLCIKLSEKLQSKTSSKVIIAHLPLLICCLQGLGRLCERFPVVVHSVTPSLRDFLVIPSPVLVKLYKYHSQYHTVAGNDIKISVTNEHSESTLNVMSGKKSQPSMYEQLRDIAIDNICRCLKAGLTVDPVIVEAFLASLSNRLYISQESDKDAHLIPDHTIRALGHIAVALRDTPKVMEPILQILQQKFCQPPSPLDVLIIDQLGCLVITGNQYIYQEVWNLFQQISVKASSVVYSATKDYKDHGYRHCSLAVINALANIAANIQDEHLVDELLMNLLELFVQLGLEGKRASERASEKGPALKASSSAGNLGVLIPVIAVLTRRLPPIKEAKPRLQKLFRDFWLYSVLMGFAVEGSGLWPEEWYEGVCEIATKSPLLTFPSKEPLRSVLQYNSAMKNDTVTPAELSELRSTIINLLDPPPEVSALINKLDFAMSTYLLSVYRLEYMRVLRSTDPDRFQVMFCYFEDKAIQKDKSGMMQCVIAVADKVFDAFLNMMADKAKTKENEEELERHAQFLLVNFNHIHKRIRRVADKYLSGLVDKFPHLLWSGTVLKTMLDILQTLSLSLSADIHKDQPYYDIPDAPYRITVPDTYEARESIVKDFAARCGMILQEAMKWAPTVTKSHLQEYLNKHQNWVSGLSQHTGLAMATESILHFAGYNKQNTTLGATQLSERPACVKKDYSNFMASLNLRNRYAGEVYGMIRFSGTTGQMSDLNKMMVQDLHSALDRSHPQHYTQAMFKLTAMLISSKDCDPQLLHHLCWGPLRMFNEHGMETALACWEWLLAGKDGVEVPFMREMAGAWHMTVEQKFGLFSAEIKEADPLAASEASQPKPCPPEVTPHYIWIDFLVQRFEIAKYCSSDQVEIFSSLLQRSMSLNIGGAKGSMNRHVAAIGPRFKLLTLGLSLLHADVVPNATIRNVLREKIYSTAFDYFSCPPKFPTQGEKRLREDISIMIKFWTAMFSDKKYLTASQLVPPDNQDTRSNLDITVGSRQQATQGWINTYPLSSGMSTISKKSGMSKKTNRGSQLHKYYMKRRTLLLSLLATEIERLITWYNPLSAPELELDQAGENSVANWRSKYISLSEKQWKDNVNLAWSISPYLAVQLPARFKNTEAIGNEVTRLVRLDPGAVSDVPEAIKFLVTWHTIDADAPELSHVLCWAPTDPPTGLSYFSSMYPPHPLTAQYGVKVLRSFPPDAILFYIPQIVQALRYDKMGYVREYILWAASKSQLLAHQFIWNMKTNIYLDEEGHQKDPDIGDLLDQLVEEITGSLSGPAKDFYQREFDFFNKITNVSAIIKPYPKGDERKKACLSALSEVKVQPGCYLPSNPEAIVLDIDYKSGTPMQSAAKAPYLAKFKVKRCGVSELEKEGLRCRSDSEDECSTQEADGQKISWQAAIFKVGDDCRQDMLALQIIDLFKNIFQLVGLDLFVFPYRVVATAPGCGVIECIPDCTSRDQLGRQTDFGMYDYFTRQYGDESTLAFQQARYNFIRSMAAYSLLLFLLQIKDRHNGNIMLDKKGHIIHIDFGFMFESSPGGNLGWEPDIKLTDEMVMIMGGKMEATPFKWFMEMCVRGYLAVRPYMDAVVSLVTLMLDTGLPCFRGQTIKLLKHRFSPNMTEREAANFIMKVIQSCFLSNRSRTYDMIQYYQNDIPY
UniProt Q13131: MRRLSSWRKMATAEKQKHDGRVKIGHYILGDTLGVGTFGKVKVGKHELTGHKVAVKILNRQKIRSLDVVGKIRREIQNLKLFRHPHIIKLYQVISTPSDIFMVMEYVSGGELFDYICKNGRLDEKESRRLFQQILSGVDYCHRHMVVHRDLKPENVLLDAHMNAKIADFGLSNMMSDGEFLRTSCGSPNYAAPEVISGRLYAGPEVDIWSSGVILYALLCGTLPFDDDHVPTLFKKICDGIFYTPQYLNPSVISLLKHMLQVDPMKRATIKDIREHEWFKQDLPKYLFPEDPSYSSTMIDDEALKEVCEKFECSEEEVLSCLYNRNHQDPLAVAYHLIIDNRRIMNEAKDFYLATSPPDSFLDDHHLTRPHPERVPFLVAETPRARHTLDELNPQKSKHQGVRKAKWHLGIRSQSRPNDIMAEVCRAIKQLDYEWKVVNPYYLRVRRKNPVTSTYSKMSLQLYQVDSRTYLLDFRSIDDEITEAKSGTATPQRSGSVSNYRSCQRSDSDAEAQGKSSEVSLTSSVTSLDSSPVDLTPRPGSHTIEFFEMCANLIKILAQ
UniProt Q05397, whole entry, looked up: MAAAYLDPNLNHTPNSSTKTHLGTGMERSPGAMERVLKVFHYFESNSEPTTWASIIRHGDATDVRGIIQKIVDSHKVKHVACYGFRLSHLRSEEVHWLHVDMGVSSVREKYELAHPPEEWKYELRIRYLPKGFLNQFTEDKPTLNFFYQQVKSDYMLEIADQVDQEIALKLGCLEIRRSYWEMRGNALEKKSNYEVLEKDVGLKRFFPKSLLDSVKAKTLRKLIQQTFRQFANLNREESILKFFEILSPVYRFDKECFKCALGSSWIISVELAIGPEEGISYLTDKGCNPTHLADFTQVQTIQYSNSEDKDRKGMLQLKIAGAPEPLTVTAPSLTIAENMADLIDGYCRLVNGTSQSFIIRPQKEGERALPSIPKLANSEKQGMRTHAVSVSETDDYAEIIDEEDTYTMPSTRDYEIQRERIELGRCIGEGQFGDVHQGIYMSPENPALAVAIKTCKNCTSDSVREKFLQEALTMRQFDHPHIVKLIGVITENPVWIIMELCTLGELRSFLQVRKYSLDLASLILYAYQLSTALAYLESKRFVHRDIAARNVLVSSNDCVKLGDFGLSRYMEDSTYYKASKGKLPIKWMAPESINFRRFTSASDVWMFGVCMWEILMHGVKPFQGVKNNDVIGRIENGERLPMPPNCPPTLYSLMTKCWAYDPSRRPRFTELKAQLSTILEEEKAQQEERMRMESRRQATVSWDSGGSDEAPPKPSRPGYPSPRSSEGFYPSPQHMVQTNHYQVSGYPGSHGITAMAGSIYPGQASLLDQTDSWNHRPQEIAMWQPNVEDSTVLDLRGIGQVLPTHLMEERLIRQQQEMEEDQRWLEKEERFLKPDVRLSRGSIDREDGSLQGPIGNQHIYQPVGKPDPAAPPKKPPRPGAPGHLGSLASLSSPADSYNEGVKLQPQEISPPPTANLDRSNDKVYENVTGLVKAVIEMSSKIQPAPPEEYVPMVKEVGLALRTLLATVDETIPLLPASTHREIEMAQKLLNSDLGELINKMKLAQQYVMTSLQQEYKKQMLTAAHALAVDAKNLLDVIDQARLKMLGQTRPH

Columns and labels:
Assay in all cases: kinase-Nluc reporter destabilization hit call (1 = scored as downregulated) (binary); higher = compound decreases kinase abundance
Conditions in all cases: K562; 2-18 h
MAPK1 = MAPK1 (UniProt P28482)
MAPK4 = MAPK4 (UniProt P31152)
MAPKAPK2 = MAPKAPK2 (UniProt P49137)
MKNK1 = MKNK1 (UniProt Q9BUB5)
NTRK2 = NTRK2 (UniProt Q16620)
NTRK3 = NTRK3 (UniProt Q16288)
PAK4 = PAK4 (UniProt O96013)
PBK = PBK (UniProt Q96KB5)
PDGFRB = PDGFRB (UniProt P09619)
PDK1 = PDK1 (UniProt Q15118)
PDPK1 = PDPK1 (UniProt O15530)
PIK4CA = PIK4CA (UniProt P42356)
PIK4CB = PIK4CB (UniProt Q9UBF8)
PLK1 = PLK1 (UniProt P53350)
PRKAA1 = PRKAA1 (UniProt Q13131)
PRKCA = PRKCA (UniProt P17252)
PTK2 = PTK2 (UniProt Q05397)
PTK2B = PTK2B (UniProt Q14289)
RAF1 = RAF1 (UniProt P04049)
[1] = target: RAF1_S257L (clone: RAF1_mut) (UniProt P04049)

Measured: kinase-Nluc reporter destabilization hit call

CNC(=O)c1ccc2c(c1)ncn2-c1ccc(CC(=O)OC(C)(C)C)cc1 (10 µM)
inactive: MAPK1 = 0 | MAPK4 = 0 | MAPKAPK2 = 0 | MKNK1 = 0 | NTRK2 = 0 | NTRK3 = 0 | PAK4 = 0 | PBK 0 | PDGFRB 0 | PDK1 = 0 | PDPK1 = 0 | PIK4CA 0 | PIK4CB 0 | PLK1 = 0 | PRKAA1 = 0 | PRKCA 0 | PTK2 = 0 | PTK2B 0 | RAF1 = 0 | [1] 0

O=C1OC(/C=C/c2ccccc2)=NC/1=C\c1cccnc1 (10 µM)
inactive: MAPK1 = 0 | MAPK4 = 0 | MAPKAPK2 = 0 | MKNK1 = 0 | NTRK2 = 0 | NTRK3 = 0 | PAK4 = 0 | PBK 0 | PDGFRB 0 | PDK1 = 0 | PDPK1 = 0 | PIK4CA 0 | PIK4CB 0 | PLK1 = 0 | PRKAA1 = 0 | PRKCA 0 | PTK2 = 0 | PTK2B 0 | RAF1 = 0 | [1] 0

CC1=C(C(=O)Nc2cc3cn[nH]c3cc2F)C(c2ccc(C(F)(F)F)cc2)CC(=O)N1 (stereo not given) (10 µM)
inactive: MAPK1 = 0 | MAPK4 = 0 | MAPKAPK2 = 0 | MKNK1 = 0 | NTRK2 = 0 | NTRK3 = 0 | PAK4 = 0 | PBK 0 | PDGFRB 0 | PDK1 = 0 | PDPK1 = 0 | PIK4CA 0 | PIK4CB 0 | PLK1 = 0 | PRKAA1 = 0 | PRKCA 0 | PTK2 = 0 | PTK2B 0 | RAF1 = 0 | [1] 0

Cc1ccc(-n2nc(C(C)(C)C)cc2NC(=O)Nc2ccc(OCCN3CCOCC3)cc2)cc1 (10 µM)
inactive: MAPK1 = 0 | MAPK4 = 0 | MAPKAPK2 = 0 | MKNK1 = 0 | NTRK2 = 0 | NTRK3 = 0 | PAK4 = 0 | PBK 0 | PDGFRB 0 | PDK1 = 0 | PDPK1 = 0 | PIK4CA 0 | PIK4CB 0 | PLK1 = 0 | PRKAA1 = 0 | PRKCA 0 | PTK2 = 0 | PTK2B 0 | RAF1 = 0 | [1] 0

Cc1nc[nH]c1CN1CCN(C(=O)N[C@@H](CC(C)C)C(=O)O)[C@@H](Cc2ccccc2)C1=O (10 µM)
inactive: MAPK1 = 0 | MAPK4 = 0 | MAPKAPK2 = 0 | MKNK1 = 0 | NTRK2 = 0 | NTRK3 = 0 | PAK4 = 0 | PBK 0 | PDGFRB 0 | PDK1 = 0 | PDPK1 = 0 | PIK4CA 0 | PIK4CB 0 | PLK1 = 0 | PRKAA1 = 0 | PRKCA 0 | PTK2 = 0 | PTK2B 0 | RAF1 = 0 | [1] 0

c1nn(C2CCOCC2)cc1Nc1ncc2nnn(-c3ccc4cn[nH]c4c3)c2n1 (10 µM)
inactive: MAPK1 = 0 | MAPK4 = 0 | MAPKAPK2 = 0 | MKNK1 = 0 | NTRK2 = 0 | NTRK3 = 0 | PAK4 = 0 | PBK 0 | PDGFRB 0 | PDK1 = 0 | PDPK1 = 0 | PIK4CA 0 | PIK4CB 0 | PLK1 = 0 | PRKAA1 = 0 | PRKCA 0 | PTK2 = 0 | PTK2B 0 | RAF1 = 0 | [1] 0

COc1ccc2c(Oc3ccc4c(C(=O)Nc5ccccc5N)cccc4c3)ccnc2c1 [Chiauranib] (10 µM)
inactive: MAPK1 = 0 | MAPK4 = 0 | MAPKAPK2 = 0 | MKNK1 = 0 | NTRK2 = 0 | NTRK3 = 0 | PAK4 = 0 | PBK 0 | PDGFRB 0 | PDK1 = 0 | PDPK1 = 0 | PIK4CA 0 | PIK4CB 0 | PLK1 = 0 | PRKAA1 = 0 | PRKCA 0 | PTK2 = 0 | PTK2B 0 | RAF1 = 0 | [1] 0

COc1cc(N2CCOCC2)ccc1Nc1ncc(F)c(Nc2ccccc2NS(C)(=O)=O)n1 (10 µM)
inactive: MAPK1 = 0 | MAPK4 = 0 | MAPKAPK2 = 0 | MKNK1 = 0 | NTRK2 = 0 | NTRK3 = 0 | PAK4 = 0 | PBK 0 | PDGFRB 0 | PDK1 = 0 | PDPK1 = 0 | PIK4CA 0 | PIK4CB 0 | PLK1 = 0 | PRKAA1 = 0 | PRKCA 0 | PTK2 = 0 | PTK2B 0 | RAF1 = 0 | [1] 0

C[C@H]1O[C@@H](O[C@H]2CC[C@@]3(C)[C@@H](CC[C@]4(C)[C@@H]3C=C[C@]35OC[C@@]6(CCC(C)(C)C[C@H]63)[C@H](O)C[C@]54C)[C@]2(C)CO)[C@H](O)[C@@H](O[C@@H]2O[C@H](CO)[C@@H](O)[C@H](O)[C@H]2O)[C@H]1O [Saikosaponin D] (2.5 µM)
inactive: MAPK1 = 0 | MAPK4 = 0 | MAPKAPK2 = 0 | MKNK1 = 0 | NTRK2 = 0 | NTRK3 = 0 | PAK4 = 0 | PBK 0 | PDGFRB 0 | PDK1 = 0 | PDPK1 = 0 | PIK4CA 0 | PIK4CB 0 | PLK1 = 0 | PRKAA1 = 0 | PRKCA 0 | PTK2 = 0 | PTK2B 0 | RAF1 = 0 | [1] 0

CNC(=O)c1cc2c(Oc3ccc(NC(=O)C4(C(=O)Nc5ccc(F)cc5)CC4)cc3)ccnc2cc1OC (2.5 µM)
inactive: MAPK1 = 0 | MAPK4 = 0 | MAPKAPK2 = 0 | MKNK1 = 0 | NTRK2 = 0 | NTRK3 = 0 | PAK4 = 0 | PBK 0 | PDK1 = 0 | PDPK1 = 0 | PIK4CA 0 | PIK4CB 0 | PLK1 = 0 | PRKAA1 = 0 | PRKCA 0 | PTK2 = 0 | PTK2B 0 | RAF1 = 0 | [1] 0
active: PDGFRB 1

Nc1ncc(C(=O)NC2CN(C(=O)C3CC3)C2)c2ccc(-c3cccc(F)c3)nc12 (2 µM)
inactive: MAPK1 = 0 | MAPK4 = 0 | MAPKAPK2 = 0 | MKNK1 = 0 | NTRK2 = 0 | NTRK3 = 0 | PAK4 = 0 | PBK 0 | PDGFRB 0 | PDK1 = 0 | PDPK1 = 0 | PIK4CA 0 | PIK4CB 0 | PLK1 = 0 | PRKAA1 = 0 | PRKCA 0 | PTK2 = 0 | PTK2B 0 | RAF1 = 0 | [1] 0

As a short view, 2 of the compounds above:
COc1cc(N2CCOCC2)ccc1Nc1ncc(F)c(Nc2ccccc2NS(C)(=O)=O)n1 (10 µM)
inactive: MAPK1 = 0 | MAPK4 = 0 | MAPKAPK2 = 0 | MKNK1 = 0 | NTRK2 = 0 | NTRK3 = 0 | PAK4 = 0 | PBK 0 | PDGFRB 0 | PDK1 = 0 | PDPK1 = 0 | PIK4CA 0 | PIK4CB 0 | PLK1 = 0 | PRKAA1 = 0 | PRKCA 0 | PTK2 = 0 | PTK2B 0 | RAF1 = 0 | [1] 0

C[C@H]1O[C@@H](O[C@H]2CC[C@@]3(C)[C@@H](CC[C@]4(C)[C@@H]3C=C[C@]35OC[C@@]6(CCC(C)(C)C[C@H]63)[C@H](O)C[C@]54C)[C@]2(C)CO)[C@H](O)[C@@H](O[C@@H]2O[C@H](CO)[C@@H](O)[C@H](O)[C@H]2O)[C@H]1O [Saikosaponin D] (2.5 µM)
inactive: MAPK1 = 0 | MAPK4 = 0 | MAPKAPK2 = 0 | MKNK1 = 0 | NTRK2 = 0 | NTRK3 = 0 | PAK4 = 0 | PBK 0 | PDGFRB 0 | PDK1 = 0 | PDPK1 = 0 | PIK4CA 0 | PIK4CB 0 | PLK1 = 0 | PRKAA1 = 0 | PRKCA 0 | PTK2 = 0 | PTK2B 0 | RAF1 = 0 | [1] 0

The list continues.

NCC1CCC(CNc2nc(NCc3ccccc3OC(F)(F)F)ncc2[N+](=O)[O-])CC1 (stereo not given) [PKC-theta inhibitor] (10 µM)
inactive: MAPK1 = 0 | MAPK4 = 0 | MAPKAPK2 = 0 | MKNK1 = 0 | NTRK2 = 0 | NTRK3 = 0 | PAK4 = 0 | PBK 0 | PDGFRB 0 | PDK1 = 0 | PDPK1 = 0 | PIK4CA 0 | PIK4CB 0 | PLK1 = 0 | PRKAA1 = 0 | PRKCA 0 | PTK2 = 0 | PTK2B 0 | RAF1 = 0 | [1] 0

CC(C)n1ncnc1-c1cn2c(n1)-c1ccc(O[C@@H](C)C(N)=O)cc1OCC2 (10 µM)
inactive: MAPK1 = 0 | MAPK4 = 0 | MAPKAPK2 = 0 | MKNK1 = 0 | NTRK2 = 0 | NTRK3 = 0 | PAK4 = 0 | PBK 0 | PDGFRB 0 | PDK1 = 0 | PDPK1 = 0 | PIK4CA 0 | PIK4CB 0 | PLK1 = 0 | PRKAA1 = 0 | PRKCA 0 | PTK2 = 0 | PTK2B 0 | RAF1 = 0 | [1] 0

COc1ccc(Br)cc1NC(=O)Nc1cccc2c1ccn2Cc1ccnc(N)c1 (2.5 µM)
inactive: MAPK1 = 0 | MAPK4 = 0 | MAPKAPK2 = 0 | MKNK1 = 0 | NTRK2 = 0 | NTRK3 = 0 | PAK4 = 0 | PBK 0 | PDGFRB 0 | PDK1 = 0 | PDPK1 = 0 | PIK4CA 0 | PIK4CB 0 | PLK1 = 0 | PRKAA1 = 0 | PRKCA 0 | PTK2 = 0 | PTK2B 0 | RAF1 = 0 | [1] 0

O=C(NCCO)c1cc(C(=O)NCCO)cc(C(=O)NCCO)c1 (10 µM)
inactive: MAPK1 = 0 | MAPK4 = 0 | MAPKAPK2 = 0 | MKNK1 = 0 | NTRK2 = 0 | NTRK3 = 0 | PAK4 = 0 | PBK 0 | PDGFRB 0 | PDK1 = 0 | PDPK1 = 0 | PIK4CA 0 | PIK4CB 0 | PLK1 = 0 | PRKAA1 = 0 | PRKCA 0 | PTK2 = 0 | PTK2B 0 | RAF1 = 0 | [1] 0

Cc1cc(C(=O)NC(C)(C)C)cc(C#Cc2ccc3c4c(oc3c2)C(C)(C)c2cc(NS(C)(=O)=O)ccc2C4=O)n1 (10 µM)
inactive: MAPK1 = 0 | MAPK4 = 0 | MAPKAPK2 = 0 | MKNK1 = 0 | NTRK2 = 0 | NTRK3 = 0 | PAK4 = 0 | PBK 0 | PDGFRB 0 | PDK1 = 0 | PDPK1 = 0 | PIK4CA 0 | PIK4CB 0 | PLK1 = 0 | PRKAA1 = 0 | PRKCA 0 | PTK2 = 0 | PTK2B 0 | RAF1 = 0 | [1] 0

O=C(ON=C1c2ccccc2-c2nc3ccccc3nc21)c1ccco1 (2.5 µM)
inactive: MAPK1 = 0 | MAPK4 = 0 | MAPKAPK2 = 0 | MKNK1 = 0 | NTRK2 = 0 | NTRK3 = 0 | PAK4 = 0 | PBK 0 | PDGFRB 0 | PDK1 = 0 | PDPK1 = 0 | PIK4CA 0 | PIK4CB 0 | PLK1 = 0 | PRKAA1 = 0 | PRKCA 0 | PTK2 = 0 | PTK2B 0 | RAF1 = 0 | [1] 0

NC1(C(=O)NCCCn2cc(-c3ccc(OC(F)(F)F)cc3)c3cc(CN4CCN(Cc5c(Cl)cccc5Cl)CC4)ccc32)CCNCC1 (2.5 µM)
inactive: MAPK1 = 0 | MAPK4 = 0 | MAPKAPK2 = 0 | MKNK1 = 0 | NTRK2 = 0 | NTRK3 = 0 | PAK4 = 0 | PBK 0 | PDGFRB 0 | PDK1 = 0 | PDPK1 = 0 | PIK4CA 0 | PIK4CB 0 | PLK1 = 0 | PRKAA1 = 0 | PRKCA 0 | PTK2 = 0 | PTK2B 0 | RAF1 = 0 | [1] 0
